Laboratory results taken from patent publication US20090226500A1, “SUTURES AND ANTI-SCARRING AGENTS” (Angiotech Pharmaceuticals, Inc, priority 2006, published 2009).

Tests used:
[1] = system: human fibroblasts; test: Cell proliferation of fibroblasts; assay type: cell-based; settings: Fibroblast, 72 hours, CYQUANT
Procedure: Fibroblasts at 70-90% confluency are trypsinized, replated at 600 cells/well in media in 96-well plates and allowed to attachment overnight. […] Each drug concentration is tested in triplicate wells. Plates containing fibroblasts and drug substance are incubated at 37° C. for 72 hours.
To terminate the assay, the media is removed by gentle aspiration. A 1/400 dilution of CYQUANT 400×GR™ dye indicator (Molecular Probes; Eugene, Oreg.) is added to 1× Cell Lysis buffer, and 200 μL of the mixture is added to the wells of the plate. Plates are incubated at room temperature, protected from light for 3-5 minutes.

[2] = system: MCP-1 production by THP-1 cells; test: MCP-1 production by macrophages; assay type: cell-based; settings: Homo sapiens, THP-1, 24 h, read-out: IC50 MCP-1 production
Procedure: The human macrophage cell line, THP-1 was plated in a 12 well plate such that each well contains 1×10^6 cells in 2 ml of media containing 10% FCS. Opsonized zymosan was prepared by resuspending 20 mg of zymosan A in 2 ml of ddH2O and homogenizing until a uniform suspension was obtained. Homogenized zymosan was pelleted at 250 g and resuspended in 4 ml of human serum for a final concentration of 5 mg/ml and incubated in a 37° C. water bath for 20 minutes to enable opsonization. Geldanamycin was prepared in DMSO at a concentration of 10^−2 M and serially diluted 10-fold to give a range of stock concentrations (10^−8 M to 10^−2 M).
THP-1 cells were stimulated to produce MCP-1 by the addition of 1 mg/ml opsonized zymosan. […] was added to THP-1 cells by directly adding DMSO stock solutions, prepared earlier, at a 1/1000 dilution, to each well. Each drug concentration was tested in triplicate wells. Plates were incubated at 37° C. for 24 hours.
After a 24-hour stimulation, supernatants were collected to quantify MCP-1 production. MCP-1 concentrations in the supernatants were determined by ELISA using recombinant human MCP-1 to obtain a standard curve. […] The dilution of Capture Antibody used was lot-specific and was determined empirically. […] Mean absorbance was determined from triplicate data readings and the mean background was subtracted. […]

## CNCCCC12CCC(c3ccccc31)c1ccccc12 [Maprotiline]
[1]
  IC50: 1200 to 10000 nM

## Clc1ccc(COC(Cn2ccnc2)c2ccc(Cl)cc2Cl)c(Cl)c1 (stereo not shown) [Miconazole]
[1]
  IC50: 1200 to 10000 nM

## CC/C(=C(\c1ccccc1)c1ccc(OCCN(C)C)cc1)c1ccccc1 [Tamoxifen]
[1]
  IC50: 1200 to 10000 nM

## CC[C@H](CO)Nc1nc(NCc2ccccc2)c2ncn(C(C)C)c2n1 [CYC 202]
[2]
  IC50: 306 nM
